Over roughly 1,100 compounds, “Renilla luciferase signal (cell health) relative to plate median” has its median near 0.97; the highest 2% begin near 1.6. This is a selection; strong and weak results do not stand in their true shares.
System: HEK293T (UBE3A T485A transfected, BAR Wnt reporter)
Assay: Renilla luciferase signal (cell health) relative to plate median (fold (linear ratio)); higher = higher Renilla signal
Conditions: 24 h
Summary of the method: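 Chemicals were robotically dosed at 0.01–100 uM for 24 h onto HEK293T cells, starting four hours after transfection with a BAR firefly luciferase Wnt reporter, TK-Renilla and an expression plasmid. The cells had been plated at 4500 cells/well in DMEM with 10% FBS at 37°C and 5% CO2. Following a Dual-Glo luciferase readout, the firefly/Renilla ratio served as the Wnt activity measure and raw Renilla as the cell health measure, both median-centred on each plate. Each value is the mean of four biological replicates.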

SMILES | Renilla luciferase signal (concentration: 0.1 uM) | Renilla luciferase signal (concentration: 1 uM) | Renilla luciferase signal (concentration: 10 uM) | Renilla luciferase signal (concentration: 100 uM) | Renilla luciferase signal (concentration: 0.01 uM)
CC(C)(C)c1cccc(C(C)(C)C)c1O [2,6-Di-tert-butylphenol] | 0.439 | 0.642 | 0.669 | 0.956 | 
CCCCCCCCCCO [1-Decanol] | 1.01 | 0.98 | 0.966 | 1.2 | 
Cc1ccc(-c2cc(C(F)(F)F)nn2-c2ccc(S(N)(=O)=O)cc2)cc1 [Celecoxib] | 0.956 | 0.884 | 0.991 | 1.19 | 
Nc1ccc(C(=O)O)cc1 [4-Aminobenzoic acid] | 0.873 | 1.02 | 1.12 | 1.07 | 
O=C(O)c1cccc(N(Cc2cccnc2)c2ccc(OC(F)F)c(OC(F)F)c2)c1 | 1.15 | 1.14 | 1.24 | 0.322 | 
CCCCCCOC(=O)C1(O)CC2OC1(C)n1c3ccccc3c3c4c(c5c6ccccc6n2c5c31)C(=O)NC4 (stereo not given) | 0.841 | 0.894 | 0.72 | 0.153 | 0.965
C1CCC(SSC2CCCCC2)CC1 [Dicyclohexyl disulfide] | 0.668 | 0.783 | 0.685 | 0.73 | 
Oc1cccc(O)c1 [Resorcinol] | 1.05 | 0.981 | 1.03 | 1.22 | 
CCC(C)(C)C1CCC(O)CC1 (stereo not given) [4-(2-Methylbutan-2-yl)cyclohexanol] | 0.723 | 0.82 | 0.757 | 1.11 | 
CC1=CC(=O)/C(=C(/C)[O-])C(=O)O1.[Na+] [Sodium dehydroacetate] | 0.915 | 0.975 | 1.03 | 1.23 | 
CCCOC(=O)c1ccc(O)cc1 [Propylparaben] | 0.868 | 0.955 | 0.874 | 0.536 | 
O=C1CCCCCN1 [Caprolactam] | 0.921 | 1.04 | 1.06 | 1.25 | 
O=C1O[C@H]([C@H](O)CO)C([O-])=C1O.[Na+] [Sodium erythorbate (1:1)] | 0.886 | 0.99 | 0.853 | 1.22 | 
c1ccc2c(c1)ccc1ccccc12 [Phenanthrene] | 0.817 | 0.792 | 0.858 | 0.898 | 
N#C[C@@H]1CC(F)(F)CN1C(=O)CNC1CC2CCC(C1)N2c1ncccn1 (stereo not given in full) | 0.805 | 1.04 | 0.919 | 1.25 | 
CCCC(=O)O [Butanoic acid] |  |  |  | 1.73 | 
CCCCCCCCCCCCCCCCCC(=O)O [Octadecanoic acid] | 0.913 | 0.958 | 0.923 | 1.4 | 
Cc1cn([C@H]2C[C@H](N=[N+]=[N-])[C@@H](CO)O2)c(=O)[nH]c1=O [3'-Azido-3'-deoxythymidine] | 0.974 | 0.837 | 0.864 | 1.35 | 
CC(C)CCO [Isopentyl alcohol] | 0.921 | 0.885 | 0.989 | 1.29 | 
CCCCc1oc2ccccc2c1C(=O)c1cc(I)c(OCCN(CC)CC)c(I)c1.Cl [Amiodarone hydrochloride] | 0.889 | 0.939 | 1.04 | 1.29 | 

Some of these compounds in order of number of heavy atoms, low to high.
SMILES | Renilla luciferase signal (concentration: 0.1 uM) | Renilla luciferase signal (concentration: 1 uM) | Renilla luciferase signal (concentration: 10 uM) | Renilla luciferase signal (concentration: 100 uM) | Renilla luciferase signal (concentration: 0.01 uM)
CCC(C)(C)C1CCC(O)CC1 (stereo not given) [4-(2-Methylbutan-2-yl)cyclohexanol] | 0.723 | 0.82 | 0.757 | 1.11 | 
C1CCC(SSC2CCCCC2)CC1 [Dicyclohexyl disulfide] | 0.668 | 0.783 | 0.685 | 0.73 | 
Cc1ccc(-c2cc(C(F)(F)F)nn2-c2ccc(S(N)(=O)=O)cc2)cc1 [Celecoxib] | 0.956 | 0.884 | 0.991 | 1.19 | 

(continued)

SMILES | Renilla luciferase signal (concentration: 0.1 uM) | Renilla luciferase signal (concentration: 1 uM) | Renilla luciferase signal (concentration: 10 uM) | Renilla luciferase signal (concentration: 100 uM) | Renilla luciferase signal (concentration: 0.01 uM)
Fc1ccccc1[C@@H](F)CO[C@H]1CC[C@H](Nc2[nH]cnc3nncc2-3)CC1 | 1.06 | 1.09 | 0.996 | 0.148 | 
Cc1ccc(Cl)cc1 [4-Chlorotoluene] | 0.968 | 1.19 | 1.06 | 1.45 | 
O=C([N-]S(=O)(=O)/C=C/c1ccccc1)c1ccc(F)cc1Cl.[Na+] | 0.836 | 0.721 | 0.459 | 0.255 | 
CC(C)CCCCCCOC(=O)CCCCC(=O)OCCCCCCC(C)C [Hexanedioic acid, diisononyl ester] | 1.07 | 1.01 | 1.05 | 1.19 | 
C=C(C)C(=O)OCCC(F)(F)C(F)(F)C(F)(F)C(F)(F)C(F)(F)C(F)(F)F [Tridecafluorohexylethyl methacrylate] | 1.04 | 0.84 | 1.04 | 1.25 | 
CC[C@H](NC(=O)c1cc(F)ccc1[N-]S(=O)(=O)c1cccc2cccnc12)c1ccccc1.[Na+] | 0.854 | 0.88 | 0.969 | 0.167 | 
c1ccc(Nc2ccccc2)cc1 [Diphenylamine] | 1.05 | 1.06 | 1.09 | 1.82 | 1.09
C[C@]12CC[C@@H]3c4ccc(O)cc4CC[C@H]3[C@@H]1CC[C@H]2O [17alpha-Estradiol] | 0.89 | 0.998 | 0.886 | 0.0462 | 
c1ccc2cc3c(ccc4ccccc43)cc2c1 [Benz(a)anthracene] | 1.01 | 0.965 | 1.06 | 1.03 | 
NS(=O)(=O)c1cc2c(cc1Cl)NCNS2(=O)=O [Hydrochlorothiazide] | 0.839 | 0.893 | 1.03 | 1.13 | 
c1ccc2c(c1)Cc1ccccc1-2 [Fluorene] | 1.05 | 1.01 | 1.08 | 1.24 | 
CS(=O)(=O)c1ccc([C@@H](C[C@H]2CCC(=O)C2)C(=O)Nc2cnccn2)cc1Cl [Piragliatin] | 0.825 | 0.77 | 0.899 | 1.01 | 
CCSC(=O)N(CC(C)C)CC(C)C [Butylate] | 1.15 | 1.07 | 1.09 | 1.59 | 1.09
Oc1ccccc1 [Phenol] | 0.976 | 0.933 | 0.959 | 1.02 | 
CCC(=C(c1ccc(O)cc1)c1ccc(OCCN(C)C)cc1)c1ccccc1 [4-Hydroxytamoxifen] | 0.751 | 0.861 | 0.667 | 0.0215 | 
CCCCCCCCCCCC(=O)OC [Methyl dodecanoate] | 0.884 | 0.792 | 0.85 | 0.89 | 
Cc1cc(=O)[nH]c(=S)[nH]1 [6-Methyl-2-thiouracil] | 1.04 | 1.03 | 1.01 | 1.37 | 
CCCCOCCOCCO [2-(2-Butoxyethoxy)ethanol] | 0.85 | 0.895 | 0.705 | 0.863 | 
CO[C@H]1/C=C/O[C@@]2(C)Oc3c(C)c(O)c4c(O)c(c(/C=N/N5CCN(C)CC5)c(O)c4c3C2=O)NC(=O)/C(C)=C\C=C\[C@H](C)[C@H](O)[C@@H](C)[C@@H](O)[C@@H](C)[C@H](OC(C)=O)[C@@H]1C [Rifampicin] | 0.803 | 0.857 | 0.732 | 0.214 | 
O=c1c(O)c(-c2ccc(O)c(O)c2)oc2cc(O)cc(O)c12 [Quercetin] | 0.645 | 0.689 | 0.465 | 0.0436 | 

Filtered by structure, those above containing nitrogen in an aromatic ring.
SMILES | Renilla luciferase signal (concentration: 0.1 uM) | Renilla luciferase signal (concentration: 1 uM) | Renilla luciferase signal (concentration: 10 uM) | Renilla luciferase signal (concentration: 100 uM) | Renilla luciferase signal (concentration: 0.01 uM)
Cc1ccc(-c2cc(C(F)(F)F)nn2-c2ccc(S(N)(=O)=O)cc2)cc1 [Celecoxib] | 0.956 | 0.884 | 0.991 | 1.19 | 
O=C(O)c1cccc(N(Cc2cccnc2)c2ccc(OC(F)F)c(OC(F)F)c2)c1 | 1.15 | 1.14 | 1.24 | 0.322 | 
CCCCCCOC(=O)C1(O)CC2OC1(C)n1c3ccccc3c3c4c(c5c6ccccc6n2c5c31)C(=O)NC4 (stereo not given) | 0.841 | 0.894 | 0.72 | 0.153 | 0.965
N#C[C@@H]1CC(F)(F)CN1C(=O)CNC1CC2CCC(C1)N2c1ncccn1 (stereo not given in full) | 0.805 | 1.04 | 0.919 | 1.25 | 
Cc1cn([C@H]2C[C@H](N=[N+]=[N-])[C@@H](CO)O2)c(=O)[nH]c1=O [3'-Azido-3'-deoxythymidine] | 0.974 | 0.837 | 0.864 | 1.35 | 
Fc1ccccc1[C@@H](F)CO[C@H]1CC[C@H](Nc2[nH]cnc3nncc2-3)CC1 | 1.06 | 1.09 | 0.996 | 0.148 | 
CC[C@H](NC(=O)c1cc(F)ccc1[N-]S(=O)(=O)c1cccc2cccnc12)c1ccccc1.[Na+] | 0.854 | 0.88 | 0.969 | 0.167 | 
CS(=O)(=O)c1ccc([C@@H](C[C@H]2CCC(=O)C2)C(=O)Nc2cnccn2)cc1Cl [Piragliatin] | 0.825 | 0.77 | 0.899 | 1.01 | 
Cc1cc(=O)[nH]c(=S)[nH]1 [6-Methyl-2-thiouracil] | 1.04 | 1.03 | 1.01 | 1.37 | 

(continued)

SMILES | Renilla luciferase signal (concentration: 0.1 uM) | Renilla luciferase signal (concentration: 1 uM) | Renilla luciferase signal (concentration: 10 uM) | Renilla luciferase signal (concentration: 100 uM) | Renilla luciferase signal (concentration: 0.01 uM)
CN(C)C(=O)C1(N2CCCCC2)CCN(CC[C@@]2(c3ccc(Cl)c(Cl)c3)CN(C(=O)c3ccccc3)CCO2)CC1 | 0.903 | 0.888 | 0.664 | 0.0169 | 
CCC(C)c1ccccc1O (stereo not given) [2-(Butan-2-yl)phenol] | 1.06 | 1.1 | 1.24 | 1.36 | 
CCCCC=O [Pentanal] | 0.858 | 0.897 | 0.989 | 1.24 | 
COc1cc(C(=O)NC2CCN(C)CC2)ccc1Nc1ncc2c(n1)N(C1CCCC1)CC(F)(F)C(=O)N2C | 0.0423 | 0.044 | 0.026 | 0.0253 | 
CC1(C)NC(=O)N(c2ccc([N+](=O)[O-])c(C(F)(F)F)c2)C1=O [Nilutamide] | 1.05 | 1.09 | 0.995 | 0.268 | 
CN1CCC(c2c(O)cc(O)c3c(=O)cc(-c4ccccc4Cl)oc23)C(O)C1 (stereo not given) [Flavopiridol] | 0.674 | 0.0101 | 0.00863 | 0.00357 | 1.07
CC(C)c1cccc(C(C)C)c1N1C(=O)c2ccc(O)cc2C1=O | 0.762 | 0.828 | 0.243 | 0.0419 | 
CC(=O)OC[C@H]1O[C@@](COC(C)=O)(O[C@H]2O[C@H](COC(C)=O)[C@@H](OC(C)=O)[C@H](OC(C)=O)[C@H]2OC(C)=O)[C@@H](OC(C)=O)[C@@H]1OC(C)=O [Sucrose octaacetate] | 0.878 | 0.93 | 1.01 | 1.18 | 
O=C(O)c1ccccc1C(c1ccc(O)cc1)c1ccc(O)cc1 [Phenolphthalin] | 1.11 | 1.1 | 0.958 | 0.886 | 
COc1cc2c3c(n(CCCn4ccnc4)c(=O)c2cc1OC)-c1cc2c(cc1C3=O)OCO2.Cl | 0.21 | 0.0894 | 0.154 | 0.171 | 0.662
CC(C)c1cccc(C(C)C)c1NC(=O)[N-]S(=O)(=O)c1cc(C(C)(C)O)co1.[Na+] | 0.547 | 0.64 | 0.582 | 0.654 | 
COC(=O)C12CCC(C)(C)CC1C1C(=O)C=C3C4(C)C=C(C#N)C(=O)C(C)(C)C4CCC3(C)C1(C)CC2 (stereo not given) [Bardoxalone-methyl] | 0.552 | 0.434 | 0.00785 | 0.0029 | 0.716
CN1CCN(c2ccccc2/C=C2\SCCN(c3ccc(Cl)c(Cl)c3)C2=O)CC1 [Elzasonan] | 1.07 | 1.11 | 0.855 | 0.0286 | 
CC(C)c1nnc2ccc(-c3ocnc3-c3cc(F)ccc3F)cn12 | 0.894 | 0.835 | 0.923 | 0.313 | 
[Cl-].c1ccc(C[n+]2cccc3ccccc32)cc1 [1-Benzylquinolinium chloride] | 0.982 | 0.98 | 0.857 | 0.0421 | 
Nc1ncn([C@@H]2O[C@H](CO)[C@@H](O)[C@H]2O)c(=O)n1 [5-azacytidine] | 0.572 | 0.391 | 0.138 | 0.596 | 0.936
Cc1cnc(-c2cnc(NCCNc3ccc(C#N)cn3)nc2-c2ccc(Cl)cc2Cl)[nH]1 | 1.02 | 0.859 | 0.675 | 0.0106 | 1.12
CCOc1ccc2[nH]cc(C(=O)NCc3ccccc3)c(=O)c2n1 | 1.05 | 1.12 | 1.22 | 0.85 | 
O=c1c(-c2ccc(O)cc2)coc2cc(O)ccc12 [Daidzein] | 1.02 | 1.11 | 1.03 | 0.523 | 
Cc1c(C(=O)O)c(O)cc2c1C(=O)c1c(O)c([C@@H]3O[C@H](CO)[C@@H](O)[C@H](O)[C@H]3O)c(O)c(O)c1C2=O [Carminic acid] | 1.06 | 1.01 | 0.37 | 0.0264 | 
